Laboratory results as given in patent US20250026792A1, “SELF-ASSEMBLING PEPTIDES WITH HYALURONIC ACID BINDING DOMAINS AND METHODS OF USE THEREOF” (Northwestern University, priority 2022, published 2025).
Entries after “also recorded” stand apart in the source; their conditions may differ. Not every detail of the peptide structures is certain; ends, links or a residue may be inferred. Where a SMILES comes first, the peptide text is derived from it. The star is where a group is joined. Biotin = O=C1N[C@H]2[C@H](CS[C@H]2CCCCC(=O)*)N1

How the values were obtained:
[1] = Concentration-dependent peptide binding to hyaluronic acid coating (biotin-streptavidin fluorescence); conditions: 0-10 mg/ml peptide, PBS pH 7.4, 37° C., HA coating 10 μg/cm^2, FIG. 3
Procedure: Peptides were incubated 24 hours at 37° C. Coatings (10 μg/cm^2) were previously dried overnight in milli-Q water. Overall significance was assessed using analysis of variance, with Tukey's multiple comparison post-hoc analysis between 1-scrm and experimental groups where n=4.
N-termini biotinylated peptides were added to coated plates at 0, 1, 2.5, 5 and 10 mg/ml overnight at 37° C. in phosphate buffered saline (PBS), pH 7.4, after which the plates were washed three times with PBS.

[2] = 1H NMR of supernatant of peptide-hyaluronic acid mixtures (loss of HA and peptide from solution); type: binding; conditions: 5 mg/mL peptide, 5 mg/mL HA
Procedure: FIGS. 7A-7C show Nuclear magnetic resonant (NMR) proton spectra of representative (i) hyaluronic acid peaks and (ii) biotinyl peptide peaks and for (FIG. 7A) mPEP35, (FIG. 7B) 1-scrm, and (FIG. 7C) 17x-3 in 25 mM sodium acetate buffer at pH 5.2. Samples represent supernatant (soluble component) of mixtures with 5 mg/mL HA in variable peptide mixture of 1.25, 2.5. and 5 mg/mL.
Peptides and HA were suspended in 25 mM sodium acetate buffer (pH 5.2), made up from 19 mM sodium acetate-d3, 6 mM acetic acid-d4, 10% D2O, and 1 mg/ml DSS-D6. All samples were centrifuged at 21,000 G to remove precipitate and the supernatant was collected for analysis, as only the liquid suspension could be used. NMR spectra were collected on an Avance NEO 600 MHz spectrometer at 298K with excitation sculpting used to suppress the water signal. Number of scans and receiver gain were identical for all NMR spectra.
As higher peptide binding was accompanied by apparent gel-like structure on the substrate, the binding event may be characterized by the change in concentration of either peptide or HA remaining in the solution. ^1H NMR is an ideal method for measuring changes in concentration in solution. It provides atom-specific information that can be used to distinguish signals of biotinylated peptides (6.4 ppm) from those of hyaluronic acid (3.5 ppm) as presented in FIG. 7. […]

[3] = Circular dichroism (CD) of peptides; type: physicochemical; conditions: 20 mM Sodium Cacodylate; for Ellipticity ratio (222 nm/208 nm) / Ellipticity 208 nm / Ellipticity 222 nm: 1.25 mg/mL; for Ellipticity 208 nm / Ellipticity 222 nm: CD data given as [θ]M×10^−3; for wavelength Minimum of CD profile: 5.0 mg/mL
Procedure: Data is presented in ellipticity ([θ]M×10^−3) as a function of spectral wavelength (λ).
Sodium cacodylate (SC), 20 mM pH 7.4, without and with 20% TFE was used to reduce phosphate related background signal and enhance detected structures. Circular dichroism (CD) data were collected in millidegrees, 0, and converted to molar ellipticity, [θ]M, and are expressed in units of deg×cm^2×dmol^−1. Scan speeds and digital integration times were 500 nm/min and 1 second, respectively. The data on the Y axis of the CD plots is [θ]M×10^−3. […] Consequently, CD signals are reported in the 190-260 nm range.

CC[C@H](C)[C@H](NC(=O)[C@H](CC(C)C)NC(=O)[C@H](CC(N)=O)NC(=O)[C@H](CC(C)C)NC(=O)[C@H](CCC(N)=O)NC(=O)[C@H](CC(C)C)NC(=O)[C@H](CCC(N)=O)NC(=O)[C@H](CC(C)C)NC(=O)[C@H](CCCCN)NC(=O)[C@H](CCCCN)NC(=O)[C@H](CCCCN)NC(=O)[C@H](CCCCN)NC(=O)[C@H](CCCCN)NC(=O)CCCC[C@@H]1SC[C@@H]2NC(=O)N[C@@H]21)C(=O)N[C@@H](CCCCN)C(=O)N[C@@H](CCCCN)C(=O)N[C@@H](CCCCN)C(=O)N[C@H](C(=O)N[C@@H](CCC(N)=O)C(=O)N[C@H](C(=O)N[C@@H](CO)C(=O)N[C@H](C(=O)N[C@H](C(=O)N[C@H](C(=O)N[C@H](C(=O)N[C@@H](CCCNC(=N)N)C(=O)N[C@@H](CCCNC(=N)N)C(=O)N[C@@H](Cc1c[nH]cn1)C(=O)O)C(C)C)C(C)C)C(C)C)C(C)C)C(C)C)C(C)C [Peptide 1-scrm, reference compound] (Biotin-KKKKKLQLQLNLIKKKVQVSVVVVRRH-OH)
binding to hyaluronic acid with increasing concentrations of peptide (fluorescence intensity) [1]: little to no binding | HA spectra / removal of HA from solution [2]: nearly baseline; also recorded: able to remove the HA | peptide remains in solution ([2]; supernatant): ~50% | Ellipticity ratio (222 nm/208 nm) [3]: 0.54 | Ellipticity 208 nm [3]: −117 | Ellipticity 222 nm [3]: −63.2 | wavelength Minimum of CD profile [3]: 225 nm | Ellipticity ratio (222 nm/208 nm) ([3]; 20% TFE): 0.90 | Ellipticity 208 nm ([3]; 20% TFE): −277 | Ellipticity 222 nm ([3]; 20% TFE): −249 | wavelength Minimum of CD profile ([3]; 20% TFE): 223 nm
